Reference: PubChem BioAssay AID1508600 (Functional Genomics Laboratory (NCATS/FGL), 2020)
The campaign covered roughly 53,000 sequences. About 3,700 (7%) were called active.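 How the source made its calls: active means gene knockdowns whose robust z-score for IL-1 alpha signal is at least 2 or at most -2, so actives lie on both sides; inactive means the rest.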 The list shows a part of the results.

experiment: Components of the Cytosolic LPS Sensing Pathway: Gene Identification via Genome-wide siRNA Screen; conditions: RAW264.7 macrophages, IL-1a HTRF, actives lie on both sides, screened at 100 nM (by protocol), cells primed 5 h with Pam3CSK4 first;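 further: robust z of the log signal after scaling to non-targeting control siRNA wells of the plate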
How it was run: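 Three distinct siRNAs per gene were tested singly at 100 nM in RAW264.7 macrophages. Following Pam3CSK4 priming and 24 hour LipidA transfection, IL-1a secretion was read by HTRF.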

z-score, inactive:
CGGCACUGACUUAUUGUUCTT against Olfr574 0.886
GGAGGGAGACCUUAUCUUATT against Tjp3 -0.65
GGCGAAGAAAAUUGAAAGATT against Utp11 1.03
GGGACAAAUUAACGACAUATT against Angptl3 0.0571
GCCUUGAAGAGUCUCAUAUTT against Farp1 0.0568
GCCAGGAUCCAUCAAUUCCTT against Olfr376 -1.84
GGCUGAUGUUAACAUUGAATT against Cdkn2c 1.31
GGACAUUGAGGAUUAUGUCTT against Med24 0.332
GGUAGUUCCUAAUAUUACCTT against Tlr4 0.634
GGGAUUCUGAUCGUGUCCATT against Olfr1509 -1.1
CCCGCUGGUGUUCCUUUGUTT against Mis18a 0.462
GGAAAGUCUCUGUUGUUCUTT against Alas1 1.51
GCAGGCAACUCGAAUGAGATT against Tmem163 0.433
GAUGCAGCAGCCAUAAGAATT against Defa-rs12 0.167
CCAUGACAUUUCCUAAGUUTT against Sall3 -0.2
CGUGAGAUCAUUGAUGUGGTT against Ankrd2 -1.16
GGUGUUGUGAAGUGUCAAATT against Dipk1a -0.0609
GCCUUUCAUACAUUCAACATT against Olfr313 -1.49
CCCGACUGAAUGCUCGGAUTT against Rnf220 0.386
CCAGUAGUUACAAUGUUCUTT against 9530077C05Rik 0.49
GGUCUUUGUCCUCAUUUUCTT against Olfr1205 0.179
CGUUUAUUGUAACCAGAAUTT against Fam168b 0.263
GGACAAAUCUUCGUGCAAATT against Tle4 0.722
GGGCUGAAUAAAAGCCAGATT against Zfp428 0.889
GCCGGAUCUAUUAAAGAAATT against Hdac2 0.134
GGAGUUGGAGAACAUUAUGTT against Dmrt2 0.783
GGAUGAAGAUCAGAUUCAATT against Metap1d 0.317
GGCAUCUGAGCUGAGGAUUTT against Gem -0.295
GCUUGCUGUUACGAUUCGCTT against Rab35 1.73

A portion from the list above, as a working copy:
z-score, inactive:
GGGACAAAUUAACGACAUATT against Angptl3 0.0571
GCCUUGAAGAGUCUCAUAUTT against Farp1 0.0568
